Experimental findings from PubChem BioAssay AID1347423 (Functional Genomics Laboratory (NCATS/FGL), 2020) are described below.

The campaign covered roughly 52,000 sequences. About 210 (0.4%) were called active.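 The calls were made as follows: active = gene whose silencing raises cell survival under the drug, median off-target-corrected z-score across its silencing RNAs 2 or more; inactive = the rest.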 Some of the results follow.

The test is described as follows: Resistance to Poly (ADP-Ribose) Polymerase inhibitor: Gene Identification via Genome-wide siRNA Screen. Particulars: mouse BRCA2 R2336H ES cells, olaparib, CellTiter-Glo viability; stronger effect = higher value. In a few lines:
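Mouse BRCA2 R2336H ES cells were reverse-transfected with siRNA (20 nM final), treated at 48 h with 500 nM olaparib, and read by CellTiter-Glo after 72 h. Scores: MAD-based z per siRNA, median per gene, seed off-target correction.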
For CGAAGCUGUUCAUAAGUAUTT against Gsr, the z-score is inactive: 1.26.
With GGUAUAGUUAAAGUGAGAGTT against Sp8 the figure was inactive: -1.1; with “GCACAUGCCAACUCAUUCUTT against 1200007D18Rik”, inactive: 1.15; with GCCCGUGUAGUGCUGGAUUTT against Tbca, inactive: -0.0124.
To GGGAACACCUACCCUGUGUTT against Plpcd belongs inactive: -0.875; to “GGGCAUGUAUCCGAUUAGATT against 1200015A19Rik”, inactive: 1.36; to GGUGCUAUUCAUCUGCACGTT against Prss15, inactive: 2.13.
Turning to GGAAAAGACAAGGAAUAUGTT against Ube2r2, the z-score was inactive: 0.291.
With UGCUGACGACAUCCCAUGCTT against Olfr255 the figure was inactive: 1.3.
With GGAGAUUUACACUUUACUATT against Spata4, the z-score is inactive: 0.469.
With CCUAAAAUACUUUACCGGGTT against Bckdhb the figure was inactive: 2.25.
To GGUGACCAAGCAGAUAACATT against Prcc belongs inactive: 0.25; to CGCAAUUUGACAUUUGGAUTT against Plekhh2, inactive: 0.683; to CCAACGUACCAGCAAUAGUTT against Rab8a, inactive: 0.312.
For the sequence GGUGGCAAACUUCAUUUUATT against Sfrs2, the z-score is inactive: -1.87.
For “GGGUAAAACAAGAAUAUCATT against 2610027L16Rik”, the z-score is inactive: 0.127.
To GGCAUUUGUGCUCUUCGGATT against Sctr belongs inactive: -0.165; to GGACAUGAUGAUGAUGAUGTT against Colm, inactive: -1.84.
With CCAUUAUCAAGGAACAAGCTT against Itgb4 the figure was inactive: 1.17; with GGAAGUCAAGGAAGCCUUCTT against Olfr368, inactive: -1.18.
Take “CGAGCCUAGAAAGAGUUGATT against B430119L13Rik”: the z-score is inactive: 1.2.
With GGAUUGAAGAAGAAAAGUCTT against Creb1 the figure was inactive: -1.52; with GGGACGUGAAGAUGAAGAATT against Fbp1, inactive: -0.899; with GGCUCAGACCCUGUACUAATT against 15-Sep, inactive: -1.46.
To “CCUAAAUGGAUAGGGUUGCTT against 1700001C19Rik” belongs inactive: -0.224; to GGAAGAGUGUAUCAUUCUUTT against Dusp9, inactive: 1.33; to CCUACUGACGACUCUUAUATT against V2r16, inactive: 0.309.
With GCGAAAGAAAGUUUUGCUGTT against Ccm1 the figure was inactive: 0.471; with GGUCACCUAAGUGCUUACGTT against Ceacam2, inactive: -0.283; with GCUAGUUAAUGGUAACAUATT against Sult1d1, inactive: -0.207.
CCCUAACUUGGAUAAGCUGTT against Nqo3a2: the z-score was inactive: 0.655.
With GGAUCCUCGGACUAAAAGUTT against Pnma1 the figure was inactive: -0.0925.
To GGAUUGUGCAGAGCAUCUGTT against Card14 belongs inactive: -1.28; to “CGGAAUUUUGCCUUCAUGATT against 2010002H18Rik”, inactive: -0.773; to GGACAAAUGACUGGUACCCTT against Gorasp2, inactive: 0.358.
With CCUGUUCUGUUAUCAACGGTT against Plxdc1, the z-score is inactive: 1.82.
With GAUGUACGAUCUGGUGGUGTT against Exosc6, the z-score is inactive: 0.00764.
With GGAAAGCUCACUUUCUUUUTT against Lmln the figure was inactive: -1.02; with GCGACUUAGAAAAGAACAGTT against AI413631, inactive: -0.873; with GGAGCCAUGCUAAGAGCAUTT against Dbil5, inactive: -0.239.
Regarding GGAACAGCUCUUUUGUGCUTT against Rin2, the z-score was inactive: 0.366.
As to GGUUUUUCUUCAUCUUAUCTT against Hspb8, the z-score was inactive: -0.456.
To CGAGUGAAUUCGAUGGACCTT against Olfr945 belongs inactive: -1.03; to GGAAGAACUUUAAAAAUGCTT against Mic2l1, inactive: 0.477; to “GGAACAAAUCCUGGAACUGTT against 9530049C15Rik”, inactive: 2.37.
To CGAAUGAGAUUUUCACUCUTT against Tek belongs inactive: 0.678; to GCGGUUAUCUGCAUAUAGATT against Elys, inactive: -1.56.
With GGACUGGAUUCAAACAAAATT against Lrrc1 the figure was inactive: 1.12; with “CCUCAGAAUUCGAAUGAACTT against C130052G03Rik”, inactive: 0.63.
As to GGAAUCUAUCUGAUCACCATT against Olfr144, the z-score is inactive: -0.225.
With “GCCAGGUUAAGCACUACGUTT against 2310022B05Rik” the figure was inactive: 2.21; with “GGAAGAGAAAGGCAAAAAGTT against E030049G20Rik”, inactive: -2.71; with GCACCAAGGAACUUGUUUCTT against Trpv2, inactive: -0.405.
As for UGCUUUUUUGCCUAGCCAATT against Gpr135, the z-score is inactive: 1.52.
As to GGAUUGUGGGAGAUAGAUATT against Psip1, the z-score is inactive: -0.838.
With GCUCUUGAUGUUUAGAGUUTT against Usp17 the figure was inactive: 0.553.
In the case of GGUUUUGGUGUUCUAUACCTT against AI450540, the z-score was inactive: 0.295.
To GACCACCUGCUAAUGGGAGTT against Prp15 belongs inactive: 1.45; to “GGCAAUAAUAAAGUCCAUCTT against D030041N04Rik”, inactive: -0.349.
To CGUAUUGGAAAGACUGCUUTT against Poldip3 belongs inactive: 1.5; to GCACAAAUCGAAUUGGCAUTT against Tgm3, inactive: -0.0147; to CCACAUUGGAACAAAGAGUTT against Lctl, inactive: 0.0203.
As to GGACAGAAAAUGUGAAAAGTT against Mdfi, the z-score was inactive: 0.0159.
Consider CCACAACAACAGGAGUACUTT against Nedd4l, for which the z-score is inactive: 0.00777.
With GGAAAGGAAAUCAAGGAUUTT against Gngt2 the figure was inactive: -0.292; with GCCCUGCUUCAUAUGGAAUTT against Elf2, inactive: 2.09.
With GCUUGACGAACAGGUACUGTT against Palm2 the figure was inactive: -0.0991.
